The source of these data is the supplement of paper PMC10663445.

Where “and” joins values, the source holds several entries; their conditions need not be identical. Equal values may be shown once. Where a name gives a salt, the structure may show the parent alone. The list shows a part of the results. Single values are uncertain, as repeats are few or missing.

This test concerns hsa-miR-132-3p. The test can be described thus: miR-132-3p level in NGN2-iNs after compound treatment (TMM-normalised, ComBat batch-corrected) (batch-corrected normalised expression (arbitrary units)); higher = higher miR-132-3p expression. The conditions noted are these: 10 µM; 24 h; human iPSC-derived NGN2 neurons (BR43).
Turning to `Nc1ccc2ncnc(NCCc3ccc(Oc4ccccc4)cc3)c2c1`, the “miR-132-3p level in NGN2-iNs” value was -0.199.

Turning to `CCOC(=O)N1CCC(=C2c3ccc(Cl)cc3CCc3cccnc32)CC1` [Loratadine], the “miR-132-3p level in NGN2-iNs” value was determined as 0.229.

With `Nc1nc(F)nc2c1ncn2[C@@H]1O[C@H](COP(=O)(O)O)[C@@H](O)[C@@H]1O` [Fludarabine Phosphate], the “miR-132-3p level in NGN2-iNs” value was -0.162.

As to `COC(=O)[C@H](c1ccccc1Cl)N1CCc2sccc2C1` [Clopidogrel], the “miR-132-3p level in NGN2-iNs” value is 0.012.

In the case of `COCCCC/C(=N\OCCN)c1ccc(C(F)(F)F)cc1` [Fluvoxamine maleate], the “miR-132-3p level in NGN2-iNs” value was -1.24.

With `C[C@H](N[C@@H](CCc1ccccc1)C(=O)O)C(=O)N1CCC[C@H]1C(=O)O` [Enalaprilat Dihydrate], the “miR-132-3p level in NGN2-iNs” value came out at 1.11.

Turning to `O=C(COc1cccc2c(=O)[nH]ccc12)c1ccccc1`, the “miR-132-3p level in NGN2-iNs” value is -0.26.

In the case of `CC(C)c1nc(N(C)S(C)(=O)=O)nc(-c2ccc(F)cc2)c1/C=C/[C@@H](O)C[C@@H](O)CC(=O)O` [Rosuvastatin Calcium], the “miR-132-3p level in NGN2-iNs” value worked out at 0.00394.

For `O=C(O)C1=C[C@@H](O)[C@@H](O)[C@H](O)C1` [Shikimic Acid], the “miR-132-3p level in NGN2-iNs” value is -0.421.

As for `C=C(C)[C@@H]1CC[C@]2(C(=O)O)CC[C@]3(C)[C@H](CC[C@@H]4[C@@]5(C)CC[C@H](O)C(C)(C)[C@@H]5CC[C@]43C)[C@@H]12` [Betulinic acid], the “miR-132-3p level in NGN2-iNs” value stood at 1.29.

For the compound `c1ccc2c(c1)CCCC2C1=NCCN1` (stereo unspecified) [Tetrahydrozoline HCl], the “miR-132-3p level in NGN2-iNs” value came out at 0.283.

As for `CC(=O)OCC(=O)NCCCOc1cccc(CN2CCCCC2)c1` [Roxatidine Acetate HCl], the “miR-132-3p level in NGN2-iNs” value was -0.361.

For the compound `CCn1cc(C(=O)O)c(=O)c2cc(F)c(N3CCNCC3)nc21` [Enoxacin], the “miR-132-3p level in NGN2-iNs” value was 0.46.

Consider `OC[C@@H](O)[C@@H](O)[C@H](O)[C@H](O)CO` [D-Mannitol], for which the “miR-132-3p level in NGN2-iNs” value is -0.38.

Regarding `O=C(O)C(Cc1ccccc1[N+](=O)[O-])=NNc1nc(-c2ccc(Cl)c(Cl)c2)cs1`, the “miR-132-3p level in NGN2-iNs” value is -1.61.

Take `O=C1NC(=O)C(c2ccccc2[N+](=O)[O-])=C1Nc1ccc(O)c(Cl)c1`: the “miR-132-3p level in NGN2-iNs” value is 1.31.

Turning to `O=C1NC(=O)/C(=C/c2ccc3nccc(-c4ccncc4)c3c2)S1`, the “miR-132-3p level in NGN2-iNs” value amounted to 0.0148.

As for `CCCc1ncc(C[n+]2ccccc2C)c(N)n1` [Amprolium HCl], the “miR-132-3p level in NGN2-iNs” value was determined as 0.0993.

As to `CC(C(=O)O)c1cccc(Oc2ccccc2)c1` (stereo unspecified) [Fenoprofen Calcium], the “miR-132-3p level in NGN2-iNs” value stood at 1.71.

Regarding `Nc1[nH]cnc2ncnc1-2` [Adenine HCl], the “miR-132-3p level in NGN2-iNs” value turned out to be 0.264.

For the compound `NCCc1c[nH]cn1` [Histamine 2HCl], the “miR-132-3p level in NGN2-iNs” value is 0.156.

Consider `OC(Cn1cncn1)(Cn1cncn1)c1ccc(F)cc1F` [Fluconazole], for which the “miR-132-3p level in NGN2-iNs” value is 0.595.

For the compound `COc1cc2ncnc(Sc3nnc(C)s3)c2cc1OC`, the “miR-132-3p level in NGN2-iNs” value was -0.237.

In the case of `COc1cc(Br)c(Nc2nc(-c3c(C)nc4ncccn34)cs2)c(Br)c1`, the “miR-132-3p level in NGN2-iNs” value is -0.243 and -0.188.

Regarding `CC(=Cc1ccc(C(=O)O)cc1)c1ccc2c(c1)C(C)(C)CCC2(C)C` [TTNPB (Arotinoid Acid)], the “miR-132-3p level in NGN2-iNs” value was -0.299.

As to `CC(C)c1c(C(=O)Nc2ccccc2)c(-c2ccccc2)c(-c2ccc(F)cc2)n1CC[C@@H](O)C[C@@H](O)CC(=O)O` [Atorvastatin Calcium], the “miR-132-3p level in NGN2-iNs” value was -0.442.

`CCN[C@H]1CN(CCCOC)S(=O)(=O)c2sc(S(N)(=O)=O)cc21` [Brinzolamide]: the “miR-132-3p level in NGN2-iNs” value was -0.404.

`CC(C)(C)c1cnc(CSc2cnc(NC(=O)C3CCNCC3)s2)o1`: the “miR-132-3p level in NGN2-iNs” value was -0.331.

Regarding `COc1cc2c(Nc3ccc(NC(=O)c4ccccc4)cc3)ncnc2cc1OCCCN1CCOCC1`, the “miR-132-3p level in NGN2-iNs” value worked out at 0.134.

In the case of `CC(=O)Nc1ccc(C(=O)Nc2ccccc2N)cc1` [Tacedinaline (CI994)], the “miR-132-3p level in NGN2-iNs” value was -0.425.

As for `O=C(O)[C@]1(Cc2cccc(Nc3nccs3)n2)CC[C@@H](Oc2cccc(Cl)c2F)CC1`, the “miR-132-3p level in NGN2-iNs” value worked out at 0.713.

Turning to `C#Cc1cccc(Nc2ncnc3cc(OC)c(OCCCCCCC(=O)NO)cc23)c1`, the “miR-132-3p level in NGN2-iNs” value is -0.131.

In the case of `CCCc1cc(C(N)=S)ccn1` [Protionamide], the “miR-132-3p level in NGN2-iNs” value was 0.739.

Consider `CNC1CCCN(c2c(F)cc3c(=O)c(C(=O)O)cn(C4CC4)c3c2OC)C1` (stereo unspecified) [Balofloxacin], for which the “miR-132-3p level in NGN2-iNs” value is 0.0241.

Turning to `C[C@H]1O[C@H](O[C@H]2[C@H](O)[C@@H](O)[C@@H](O[C@H]3[C@H](O)[C@@H](O)C(O)O[C@@H]3CO)O[C@@H]2CO)[C@H](O)[C@@H](O)[C@@H]1N[C@H]1C=C(CO)[C@@H](O)[C@H](O)[C@H]1O` (stereo partly specified) [Acarbose], the “miR-132-3p level in NGN2-iNs” value stood at 0.331.

Regarding `CO[C@H]1/C=C/O[C@@]2(C)Oc3c(C)c(O)c4c(O)c(c(/C=N/N5CCN(C6CCCC6)CC5)c(O)c4c3C2=O)NC(=O)/C(C)=C\C=C\[C@H](C)[C@H](O)[C@@H](C)[C@@H](O)[C@@H](C)[C@H](OC(C)=O)[C@@H]1C` [Rifapentine], the “miR-132-3p level in NGN2-iNs” value was 0.25.

`N=C(N)NC(=N)NCCc1ccccc1` [Phenformin HCl]: the “miR-132-3p level in NGN2-iNs” value is -0.66.

As to `CN1CCC(=C2c3ccccc3C=Cc3ccccc32)CC1` [Cyproheptadine HCl], the “miR-132-3p level in NGN2-iNs” value was -1.21.

Regarding `c1ccc(NCc2ccc(CNc3ccccn3)cc2)nc1`, the “miR-132-3p level in NGN2-iNs” value is -0.381.

Turning to `O=C(NC[C@H]1CN(c2ccc(N3CCOCC3=O)cc2)C(=O)O1)c1ccc(Cl)s1` [Rivaroxaban], the “miR-132-3p level in NGN2-iNs” value stood at 0.255.

On to `Cc1cc2c(cc1CC(=O)c1sccc1S(=O)(=O)Nc1onc(C)c1Cl)OCO2` [Sitaxentan sodium], for which the “miR-132-3p level in NGN2-iNs” value was -0.935.

With `C[C@@]1(C(=O)Nc2ccc(F)nc2)CCCN1c1nc(Nc2cc(C3CC3)n[nH]2)c2cccn2n1`, the “miR-132-3p level in NGN2-iNs” value was -0.0521.

For the compound `N#Cc1ccc(C(c2ccc(C#N)cc2)n2cncn2)cc1` [Letrozole], the “miR-132-3p level in NGN2-iNs” value was found to be 2.01.

With `O=C(Nc1cccc(Cl)c1)c1ccccn1`, the “miR-132-3p level in NGN2-iNs” value was -0.725.

Regarding `COc1c2occc2cc2ccc(=O)oc12` [Methoxsalen], the “miR-132-3p level in NGN2-iNs” value amounted to 0.78.

As to `NC(=O)c1ccc(N(C(N)=O)c2c(F)cccc2F)nc1-c1ccc(F)cc1F`, the “miR-132-3p level in NGN2-iNs” value is -0.999.

Consider `CC(=O)Oc1ccccc1C(=O)Nc1ncc([N+](=O)[O-])s1` [Nitazoxanide], for which the “miR-132-3p level in NGN2-iNs” value was 2.66.

Turning to `Nc1c(CC(=O)O)cccc1C(=O)c1ccccc1` [Amfenac Sodium Monohydrate], the “miR-132-3p level in NGN2-iNs” value turned out to be 2.1.

For the compound `COc1ccc([C@@H]2CC(=O)c3c(O)cc(O)cc3O2)cc1O` [Hesperetin], the “miR-132-3p level in NGN2-iNs” value is 1.06.

Take `COc1ccc(-c2ccc3c(N4CCOC[C@@H]4C)nc(N4CCOC[C@@H]4C)nc3n2)cc1CO`: the “miR-132-3p level in NGN2-iNs” value is -1.06.

Take `CC(C)C[C@H](NP(=O)(O)O[C@@H]1O[C@@H](C)[C@H](O)[C@@H](O)[C@H]1O)C(=O)N[C@@H](Cc1c[nH]c2ccccc12)C(=O)O` [Phosphoramidon Disodium Salt]: the “miR-132-3p level in NGN2-iNs” value is -0.132.
